# Assay results: publication doi:10.1101/2020.08.13.249979 (bioRxiv, 2020)
# No constants are given. Whether binding was seen depends on the method and setting. Some results given as binding are weak or reduced against the parent protein; the word gives no strength.
# Target: Vipp1_(F197K/L200K) (Nostoc punctiforme) (UniProt B2J6D9)
# Test: negative stain EM
binder,measurement,value
"Vipp1_(F197K/L200K) (protein, UniProt B2J6D9 1-258) MGLFDRIKRVVSSNLNDLVNKAEDPEKMLEQAILEMQEDLVQLRQGVAQAIAAQKRSEKQYNDAQNEINKWQRNAQLALQKGDENLARQALERKKTYTDTSAALKASLDTQSTQVETLKRNLIQLESKISEAKTKKEMLKARITTAKAQEQLQGMVRGMNTSSAMSAFERMEEKVLMQESRAQALGELAGADLETQKAQKEGGSDVDDELAALKAQMLPPATPVTQAQLPPQQETTPAKSNEVVDAELDSLRKQLDQL",binding,binds weakly
